# Reference: publication PMC8278045
# Chains of the proteins cited; added tags and fusions are not shown. Lines headed by an entry give the natural chain unless they say otherwise; changes in a name come on top.
# UniProt Q31NL7: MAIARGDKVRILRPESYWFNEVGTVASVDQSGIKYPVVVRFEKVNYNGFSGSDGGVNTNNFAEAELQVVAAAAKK
# UniProt Q31KS4: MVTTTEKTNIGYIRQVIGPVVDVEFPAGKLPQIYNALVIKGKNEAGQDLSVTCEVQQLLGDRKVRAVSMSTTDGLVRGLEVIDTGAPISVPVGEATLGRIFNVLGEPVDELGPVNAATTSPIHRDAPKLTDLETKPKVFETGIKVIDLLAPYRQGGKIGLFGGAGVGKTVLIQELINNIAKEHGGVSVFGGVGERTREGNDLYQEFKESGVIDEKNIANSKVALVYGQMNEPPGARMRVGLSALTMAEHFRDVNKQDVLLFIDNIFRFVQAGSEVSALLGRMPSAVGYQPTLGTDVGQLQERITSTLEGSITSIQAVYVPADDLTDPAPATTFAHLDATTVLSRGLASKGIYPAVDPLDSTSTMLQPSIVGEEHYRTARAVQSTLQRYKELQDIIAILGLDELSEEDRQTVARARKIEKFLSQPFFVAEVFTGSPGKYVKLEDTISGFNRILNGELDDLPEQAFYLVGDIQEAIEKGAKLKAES
# UniProt Q31NV8: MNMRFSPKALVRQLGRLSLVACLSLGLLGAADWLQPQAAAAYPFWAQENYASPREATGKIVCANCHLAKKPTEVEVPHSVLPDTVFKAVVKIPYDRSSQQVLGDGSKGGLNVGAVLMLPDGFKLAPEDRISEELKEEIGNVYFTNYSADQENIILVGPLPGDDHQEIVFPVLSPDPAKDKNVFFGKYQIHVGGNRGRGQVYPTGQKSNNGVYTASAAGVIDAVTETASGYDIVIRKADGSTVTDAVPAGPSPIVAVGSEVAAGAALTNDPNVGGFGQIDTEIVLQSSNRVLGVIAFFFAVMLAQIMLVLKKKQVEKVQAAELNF
# UniProt P31094: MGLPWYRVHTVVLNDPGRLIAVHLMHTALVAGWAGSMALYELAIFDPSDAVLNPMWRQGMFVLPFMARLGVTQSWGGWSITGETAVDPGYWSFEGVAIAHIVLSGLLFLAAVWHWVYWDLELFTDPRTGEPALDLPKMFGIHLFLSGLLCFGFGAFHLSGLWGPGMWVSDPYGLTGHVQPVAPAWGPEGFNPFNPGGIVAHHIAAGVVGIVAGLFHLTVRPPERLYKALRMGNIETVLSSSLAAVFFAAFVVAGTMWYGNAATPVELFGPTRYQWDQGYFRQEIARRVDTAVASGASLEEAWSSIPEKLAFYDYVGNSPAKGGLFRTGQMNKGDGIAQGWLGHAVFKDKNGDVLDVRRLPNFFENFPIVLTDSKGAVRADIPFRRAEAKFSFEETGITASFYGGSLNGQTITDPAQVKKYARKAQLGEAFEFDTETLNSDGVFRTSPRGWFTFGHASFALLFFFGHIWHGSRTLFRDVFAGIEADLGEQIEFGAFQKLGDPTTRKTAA
# UniProt Q31NJ6: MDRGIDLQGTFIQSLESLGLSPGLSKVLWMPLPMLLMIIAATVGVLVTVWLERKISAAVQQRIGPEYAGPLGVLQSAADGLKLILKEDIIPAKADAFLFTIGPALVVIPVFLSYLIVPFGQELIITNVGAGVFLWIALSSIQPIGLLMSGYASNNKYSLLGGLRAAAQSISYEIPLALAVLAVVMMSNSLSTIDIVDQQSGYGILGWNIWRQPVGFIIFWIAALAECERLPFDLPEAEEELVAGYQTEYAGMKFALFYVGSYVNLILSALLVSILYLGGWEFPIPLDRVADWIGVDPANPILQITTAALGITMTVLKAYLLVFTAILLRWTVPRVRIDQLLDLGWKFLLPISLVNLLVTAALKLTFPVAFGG
# UniProt Q31M07: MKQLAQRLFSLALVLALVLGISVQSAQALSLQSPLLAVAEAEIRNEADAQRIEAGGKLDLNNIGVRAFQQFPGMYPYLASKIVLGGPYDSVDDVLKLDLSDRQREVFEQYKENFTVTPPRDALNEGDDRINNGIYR
# UniProt P39660: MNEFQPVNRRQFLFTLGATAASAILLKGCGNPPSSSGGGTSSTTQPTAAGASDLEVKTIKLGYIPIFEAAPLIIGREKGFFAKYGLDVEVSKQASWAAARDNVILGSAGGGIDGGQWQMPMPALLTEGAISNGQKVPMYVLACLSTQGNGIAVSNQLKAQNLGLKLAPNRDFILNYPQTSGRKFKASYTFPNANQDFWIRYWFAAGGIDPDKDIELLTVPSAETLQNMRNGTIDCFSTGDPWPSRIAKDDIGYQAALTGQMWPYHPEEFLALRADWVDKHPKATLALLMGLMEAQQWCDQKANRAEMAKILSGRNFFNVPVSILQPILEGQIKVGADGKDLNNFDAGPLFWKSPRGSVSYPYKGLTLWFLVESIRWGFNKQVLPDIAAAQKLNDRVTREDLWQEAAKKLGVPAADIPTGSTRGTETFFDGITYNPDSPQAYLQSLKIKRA
# How the values were obtained:
# Test in all cases: affinity purification with mass spectrometry; GFP pull-down (µMACS/MultiMACS GFP Isolation Kit beads) from thylakoid membranes of GFP-labelled Syn7942 strains solubilised with 1% digitonin; label-free LC-MS/MS, abundances normalised to GFP, WT strain as control, triplicates
# [1] = molecular target: PsaE of Photosystem I labelled with enhanced GFP (PSI–GFP) (Synechococcus elongatus PCC 7942) (UniProt Q31NL7)
# [2] = molecular target: AtpB (β) of ATPase labelled with enhanced GFP (ATPase–GFP) (Synechococcus elongatus PCC 7942) (UniProt Q31KS4)
# [3] = molecular target: PetA of Cytochrome b6f labelled with enhanced GFP (Cyt b6f–GFP) (Synechococcus elongatus PCC 7942) (UniProt Q31NV8)
# [4] = molecular target: PsbB (CP47) of Photosystem II labelled with enhanced GFP (PSII–GFP) (Synechococcus elongatus PCC 7942) (UniProt P31094)
binding [1],binding [2],binding [3],binding [4],Molecule
binds,–,–,–,NdhA (from UniProt Q31NJ6 1-372)
binds,binds,binds,–,PsbU (from UniProt Q31M07)
binds,–,–,–,bicarbonate transporter subunit CmpA (from UniProt P39660)
binds,–,–,–,"NdhM (protein, UniProt Q31LQ7 1-110) MLLKSTTRHIRIFTAEIEGNELQPSDTVLTLDVDPDNEFNWNEEALQKVYRQFDDLVESYAGQELSEYNLRRIGSELEVLLRQMLQAGEISYNLNCRVLNYSMGVPQAVV"
–,binds,–,–,"chaperon protein DnaK3 (protein, UniProt P50022 1-749) MGRVVGIDLGTTNSVIAVMEGGKPMVIANAEGVRTTPSVVGVSKTGERLVGELARRQLVLNPRNTFANIKRFIGRRYDELTDESKRVPYTVRRDPEGNVRIVCPQLSREFAPEEVAAMILRKLAEEASRYLGEPVTGAVITVPAYFNDSQRQATRDAGRIAGLEVKRILNEPTAASLAYGLDRRDNQTILVFDLGGGTFDVSVLKVGNGVFEVKATSGDTQLGGNDFDRRIVDWLAEQFLEAEGIDLRRDRQALQRLIEAAEKAKIELSGVSVTDINLPFITATEDEPKHLETRLTRSEFEALCEDLLERMMRPLRRALKDARLQPQDIDEVVLVGGSTRMPMVQQLVRSLIGREPNQNVNPDEVVAIGAAIQAGILAGEVKDILLLDVTPLSLGLETIGGVMKKLIPRNTAIPVRRSDIFSTAENNQTMVEIHILQGERQLAEGNKSLGRFKLTGIPPAPRGVPQVQVSFDIDANGILQVSALDKTTGREQTVTIQGASTLSQEEVKRMMKDAELYAQQDRQLKARIEKRNRAQTLIAQSERRLREISLDFGLYFAESKRRRIESTIRELKDYLERQDDRGLDLALAELQDALFDLNQETAARLRDEEGEGFFEPLKQTFASLRGDGNRDFERSWDDRGGDRWDADPWDRSRRSTPSYGYDDRRSPVSDPYRGERWVEEQTSMSRREPVRDRNGGNGSVRPEPAPRRGRPTWEEDQPPRRDRSSQPPAKPASGRRWNDGWDDDDDEWF"
binds,–,–,–,"NdhN (protein, UniProt Q31L05 1-158) MALITTGSKFLRALEQEGALAVYAPLEGGYEGRYLRRLRSKGYSALTYSARGLGDPAQFLMDIHGVRPPHLGKQTIGNEAAVGRVEYVLPLVGYPLQNLPANAKGLVLWLLEGHVLSPQELSYFVTLPQAEPRLKVVIEMGGDRGFSWQPLAAVAEAA"
–,–,–,binds,"PSI assembly protein Ycf4 (protein, UniProt Q31QI3 1-188) MPSPVATVETDSLQQPILGSRRPSNYFWAIAVSVGGTGLLLAGLSSYLQVNLLPFSEPTRLAFLPQGLVMGLYGIAAILLASYLWFVISLDVGGGYNAFDRKTQKATIFRWGFPGKNRRVEITYPLSDIQAVRVDIKEGLNPKRALYLKVKGRGDVPLTRVGQPLPLTELESQGAELARFLAVPLEGL"
binds,–,–,–,"chromosome partition protein Smc (protein, UniProt Q31LJ4 1-1195) MVYIKQIELSHFKSFGGTTSLPLLPEFTVVTGPNGSGKSNILDALLFALGLSSSKGMRADRLPDLVNSTYASRSRSTVETLVTVTFALDDWQPEAEETEEGEGTGLQPGMAEWTVSRKLRVTPSGTYTSTYAMNGEACTLQQLHEQLSRLRIYPEGYNVVLQGDVTNIISMSPRDRRQIIDELAGVAQFDRKIEQAKGKLEAVKEREDRCRIVEQELIEQRDRLAKDREKAQKYQALRQEQATKQSWEAVLRWRAGQRQVQALQRSLAQLATDAATDQQTQQTLEQQIQQTEATLDRLNQRVKALGEEELLKLQAALAQQEAEQRQSQRQQQELVESQTQTQQQIQALLQTQAQLQTEGQQQAEQARTLQTTIAQTLQPQYQQALEQVEAARQSAHALAAQSQDWVTRQTSLRQQADAIAAQVEPQRAEQAQLQERQTQLQQQLEATQSALVTVTAELETETEQAEGDRAALSQAEAAVVTAADQLVRLEEELQIQQETRDRLLKEQRDKQRQLDRQESLRQAMQETQGTAAARLILDTGLPGVHGLVAQLGRVEPRYQLALEVAAGGRLGYLVVDDDGVASAGIELLKQKKAGRITFLPLNRIRAGKQPEIPRWQQPEGLVDLAIALVDCDDRYREVFKFVLGGTVVFERLDQARRYMGQYRIVTLDGELLETSGAMTGGSIARRSGGLSFGSPDSGESAEVRAIRDRLEQLEVILDRSELQILNLQAAIKDAASTLSDRRQQQREQQLTVQQRQQTLQRLQQQQQQLNAELQQRQQQASQAQARLAALALELPAALKQLKTLRQALAELEDSPIHGEWQQRQTLLQQQEALLQQQETALRQAEQQLQQLQTDQKRLQERAIAAQTQVSQLRQQQGEQLNRLAQLDEQQRQQATAIAQLQQRQAQLEAQLGQEKVDRDRTERQLQEQRSQRQNLVWQQEKRQQQQQELQQQLTDLEVQLQAEQQELPQPLPDIPEMVQQQGIEALQHELRSLAKRIQAMEPVNMLALEEYERTQARLEELSEKLTTIEAERTELLLRIENFTTLRRRAFMESFEAIDRNFQEIFAHLSDGDGSLQLDNPEDPFSSGLNLIAHPKGKPVRRLASMSGGEKSLTALSFIFALQRYRPSPFYALDEVDSFLDGANVERLARVIRQQAQAAQFIVVSHRRPMIEAAERTIGVTQARGAHTQVLGIPQP"
binds,binds,–,binds,"MAGEIFGTAFLFIVLVPVGLALGAFLLKVQGVQKAEK (peptide, UniProt Q31KG3 1-37) [PetM]"
binds,binds,binds,–,"PsbV (protein, UniProt Q31LM9 31-167) AELTAETRTVKLNPQGDNVTLSLKQVAEGKQLFAYACGQCHVGGITKTDPNVGLDPEALALATPPRDSVESLVDYLHNPTTYDGEREISELHPSTKSTDIFPKMRNLTEDDLVAISGHILLQPKIVGTKWGGGKIYY"

# These are yes or no findings as the source states them, for the method shown. Binding seen in cells or lysates may run through a third protein. These calls come from enrichment with a bait or labelling near it, and not all partners need be listed.
